# Data: PubChem BioAssay (EPA / NIEHS)
# Amino acid sequences for entries named in this document (tags omitted). A change or cut given only in a name is not applied to a line headed by its entry.
# UniProt P33261, whole entry, looked up: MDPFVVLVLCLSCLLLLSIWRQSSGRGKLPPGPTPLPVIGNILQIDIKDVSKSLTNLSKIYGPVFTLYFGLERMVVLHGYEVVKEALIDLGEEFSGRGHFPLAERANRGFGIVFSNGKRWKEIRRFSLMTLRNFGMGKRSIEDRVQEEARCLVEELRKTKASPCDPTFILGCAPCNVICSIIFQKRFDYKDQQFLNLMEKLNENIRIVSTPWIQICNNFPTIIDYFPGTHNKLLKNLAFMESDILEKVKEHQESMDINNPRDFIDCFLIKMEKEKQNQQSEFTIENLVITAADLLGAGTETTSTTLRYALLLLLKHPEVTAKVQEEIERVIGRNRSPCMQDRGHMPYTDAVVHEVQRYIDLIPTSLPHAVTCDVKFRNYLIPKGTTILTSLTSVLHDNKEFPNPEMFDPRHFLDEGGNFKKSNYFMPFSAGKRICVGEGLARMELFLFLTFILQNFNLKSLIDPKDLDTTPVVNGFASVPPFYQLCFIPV
# UniProt Q9UNQ0: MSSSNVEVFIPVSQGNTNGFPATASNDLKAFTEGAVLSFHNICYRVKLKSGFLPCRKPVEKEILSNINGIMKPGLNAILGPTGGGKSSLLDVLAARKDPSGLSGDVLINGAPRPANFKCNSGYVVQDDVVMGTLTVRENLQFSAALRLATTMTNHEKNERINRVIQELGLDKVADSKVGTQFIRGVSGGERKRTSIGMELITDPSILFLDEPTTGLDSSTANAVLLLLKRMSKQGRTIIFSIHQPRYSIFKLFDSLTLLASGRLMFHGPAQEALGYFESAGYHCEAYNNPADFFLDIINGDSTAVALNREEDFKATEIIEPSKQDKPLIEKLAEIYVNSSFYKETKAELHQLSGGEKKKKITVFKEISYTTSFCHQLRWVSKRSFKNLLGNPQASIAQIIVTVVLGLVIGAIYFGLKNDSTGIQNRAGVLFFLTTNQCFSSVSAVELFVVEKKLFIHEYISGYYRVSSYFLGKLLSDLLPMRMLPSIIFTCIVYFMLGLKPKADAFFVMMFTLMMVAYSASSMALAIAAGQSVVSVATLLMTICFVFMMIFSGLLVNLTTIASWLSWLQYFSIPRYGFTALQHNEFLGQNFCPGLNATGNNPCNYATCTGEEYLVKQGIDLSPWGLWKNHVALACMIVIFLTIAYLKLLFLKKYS
# UniProt P04406: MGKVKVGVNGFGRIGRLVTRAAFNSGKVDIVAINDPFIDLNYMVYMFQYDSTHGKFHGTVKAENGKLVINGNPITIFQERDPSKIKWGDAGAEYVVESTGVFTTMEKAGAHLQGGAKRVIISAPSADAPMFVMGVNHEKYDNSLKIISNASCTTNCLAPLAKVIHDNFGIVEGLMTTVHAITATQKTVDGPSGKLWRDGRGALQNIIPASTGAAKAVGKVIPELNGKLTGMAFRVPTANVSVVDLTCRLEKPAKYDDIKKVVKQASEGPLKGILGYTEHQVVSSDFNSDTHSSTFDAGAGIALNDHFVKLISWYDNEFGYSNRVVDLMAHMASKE
# UniProt P04799: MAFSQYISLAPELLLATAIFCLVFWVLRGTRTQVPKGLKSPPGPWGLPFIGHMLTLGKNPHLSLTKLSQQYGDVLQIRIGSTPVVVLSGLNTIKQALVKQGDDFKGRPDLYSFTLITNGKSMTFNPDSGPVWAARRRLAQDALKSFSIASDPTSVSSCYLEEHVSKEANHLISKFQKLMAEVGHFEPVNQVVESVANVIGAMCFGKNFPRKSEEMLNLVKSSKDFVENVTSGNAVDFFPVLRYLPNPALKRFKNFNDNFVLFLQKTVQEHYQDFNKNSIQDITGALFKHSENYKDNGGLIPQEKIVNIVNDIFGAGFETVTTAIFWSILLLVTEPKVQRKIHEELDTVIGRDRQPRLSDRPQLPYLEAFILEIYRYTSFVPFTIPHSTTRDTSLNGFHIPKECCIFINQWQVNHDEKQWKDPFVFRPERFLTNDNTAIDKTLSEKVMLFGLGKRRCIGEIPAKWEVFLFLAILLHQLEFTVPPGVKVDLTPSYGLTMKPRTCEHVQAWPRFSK
# UniProt P31751: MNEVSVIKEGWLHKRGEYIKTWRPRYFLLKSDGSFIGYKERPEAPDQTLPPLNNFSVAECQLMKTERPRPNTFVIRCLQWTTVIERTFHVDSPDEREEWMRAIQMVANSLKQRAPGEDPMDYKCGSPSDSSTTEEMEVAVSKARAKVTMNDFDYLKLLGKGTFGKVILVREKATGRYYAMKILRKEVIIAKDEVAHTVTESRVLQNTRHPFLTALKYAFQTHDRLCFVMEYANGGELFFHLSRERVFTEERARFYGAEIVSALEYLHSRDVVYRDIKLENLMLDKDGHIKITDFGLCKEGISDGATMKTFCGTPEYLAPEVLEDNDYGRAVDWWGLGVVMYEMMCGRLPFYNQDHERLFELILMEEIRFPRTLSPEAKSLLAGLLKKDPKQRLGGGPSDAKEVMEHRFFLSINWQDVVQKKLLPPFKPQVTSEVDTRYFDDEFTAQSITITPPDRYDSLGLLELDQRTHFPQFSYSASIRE
# UniProt P28827, whole entry, looked up: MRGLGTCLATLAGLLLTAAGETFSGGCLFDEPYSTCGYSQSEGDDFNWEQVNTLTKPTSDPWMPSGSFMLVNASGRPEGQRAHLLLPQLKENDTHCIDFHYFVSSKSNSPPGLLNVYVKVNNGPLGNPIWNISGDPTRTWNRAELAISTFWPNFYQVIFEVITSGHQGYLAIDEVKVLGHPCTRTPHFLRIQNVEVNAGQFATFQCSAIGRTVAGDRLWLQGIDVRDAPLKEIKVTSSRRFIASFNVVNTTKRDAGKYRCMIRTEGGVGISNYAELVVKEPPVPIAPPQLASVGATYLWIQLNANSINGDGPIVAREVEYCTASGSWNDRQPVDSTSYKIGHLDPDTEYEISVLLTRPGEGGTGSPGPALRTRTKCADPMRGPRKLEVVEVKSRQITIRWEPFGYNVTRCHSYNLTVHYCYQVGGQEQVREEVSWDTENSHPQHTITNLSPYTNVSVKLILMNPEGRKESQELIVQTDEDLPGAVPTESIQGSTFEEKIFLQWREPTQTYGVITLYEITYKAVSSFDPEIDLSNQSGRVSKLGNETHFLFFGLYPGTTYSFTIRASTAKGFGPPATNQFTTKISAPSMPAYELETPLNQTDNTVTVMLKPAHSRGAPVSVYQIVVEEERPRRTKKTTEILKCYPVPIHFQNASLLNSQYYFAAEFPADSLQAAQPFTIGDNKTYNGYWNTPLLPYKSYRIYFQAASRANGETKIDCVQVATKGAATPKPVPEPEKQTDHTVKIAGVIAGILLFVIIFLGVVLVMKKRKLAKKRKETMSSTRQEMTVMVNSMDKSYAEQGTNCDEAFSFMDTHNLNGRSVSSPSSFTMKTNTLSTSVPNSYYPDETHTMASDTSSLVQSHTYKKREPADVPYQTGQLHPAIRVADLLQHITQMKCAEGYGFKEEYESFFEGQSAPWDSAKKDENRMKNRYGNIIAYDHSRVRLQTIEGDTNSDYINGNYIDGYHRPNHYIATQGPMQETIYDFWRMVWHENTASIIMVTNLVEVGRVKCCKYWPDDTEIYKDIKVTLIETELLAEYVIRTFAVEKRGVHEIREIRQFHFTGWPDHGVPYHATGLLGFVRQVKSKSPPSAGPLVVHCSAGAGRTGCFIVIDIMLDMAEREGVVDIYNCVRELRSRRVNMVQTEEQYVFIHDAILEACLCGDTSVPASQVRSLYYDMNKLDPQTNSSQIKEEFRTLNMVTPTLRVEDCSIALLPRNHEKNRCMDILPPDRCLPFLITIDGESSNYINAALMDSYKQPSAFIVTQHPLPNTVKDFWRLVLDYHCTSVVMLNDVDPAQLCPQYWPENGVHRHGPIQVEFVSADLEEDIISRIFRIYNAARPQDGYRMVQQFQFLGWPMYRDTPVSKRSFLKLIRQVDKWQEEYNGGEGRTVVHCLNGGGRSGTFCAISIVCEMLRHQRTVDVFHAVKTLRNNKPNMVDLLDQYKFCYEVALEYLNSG
# UniProt Q8IXJ6: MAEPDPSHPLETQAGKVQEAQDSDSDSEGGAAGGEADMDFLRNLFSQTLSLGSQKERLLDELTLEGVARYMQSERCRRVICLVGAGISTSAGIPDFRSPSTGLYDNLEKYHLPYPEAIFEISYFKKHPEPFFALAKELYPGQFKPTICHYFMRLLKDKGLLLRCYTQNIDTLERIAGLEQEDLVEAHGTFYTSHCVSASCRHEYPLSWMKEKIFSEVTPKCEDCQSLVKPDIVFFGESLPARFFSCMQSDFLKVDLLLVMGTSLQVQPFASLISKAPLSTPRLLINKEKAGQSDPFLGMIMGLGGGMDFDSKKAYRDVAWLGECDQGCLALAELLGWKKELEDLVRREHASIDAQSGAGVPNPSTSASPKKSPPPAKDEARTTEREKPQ
# UniProt P27361, whole entry, looked up: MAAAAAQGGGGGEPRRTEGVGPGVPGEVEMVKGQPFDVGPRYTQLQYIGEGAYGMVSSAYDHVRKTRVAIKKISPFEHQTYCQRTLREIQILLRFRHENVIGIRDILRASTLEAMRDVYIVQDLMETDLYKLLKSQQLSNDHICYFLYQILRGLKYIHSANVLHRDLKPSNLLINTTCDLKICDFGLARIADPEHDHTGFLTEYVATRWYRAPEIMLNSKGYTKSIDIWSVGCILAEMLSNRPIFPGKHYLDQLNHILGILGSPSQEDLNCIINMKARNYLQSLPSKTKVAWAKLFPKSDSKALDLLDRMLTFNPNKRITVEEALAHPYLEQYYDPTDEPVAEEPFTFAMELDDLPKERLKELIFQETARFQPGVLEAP
# UniProt Q05209: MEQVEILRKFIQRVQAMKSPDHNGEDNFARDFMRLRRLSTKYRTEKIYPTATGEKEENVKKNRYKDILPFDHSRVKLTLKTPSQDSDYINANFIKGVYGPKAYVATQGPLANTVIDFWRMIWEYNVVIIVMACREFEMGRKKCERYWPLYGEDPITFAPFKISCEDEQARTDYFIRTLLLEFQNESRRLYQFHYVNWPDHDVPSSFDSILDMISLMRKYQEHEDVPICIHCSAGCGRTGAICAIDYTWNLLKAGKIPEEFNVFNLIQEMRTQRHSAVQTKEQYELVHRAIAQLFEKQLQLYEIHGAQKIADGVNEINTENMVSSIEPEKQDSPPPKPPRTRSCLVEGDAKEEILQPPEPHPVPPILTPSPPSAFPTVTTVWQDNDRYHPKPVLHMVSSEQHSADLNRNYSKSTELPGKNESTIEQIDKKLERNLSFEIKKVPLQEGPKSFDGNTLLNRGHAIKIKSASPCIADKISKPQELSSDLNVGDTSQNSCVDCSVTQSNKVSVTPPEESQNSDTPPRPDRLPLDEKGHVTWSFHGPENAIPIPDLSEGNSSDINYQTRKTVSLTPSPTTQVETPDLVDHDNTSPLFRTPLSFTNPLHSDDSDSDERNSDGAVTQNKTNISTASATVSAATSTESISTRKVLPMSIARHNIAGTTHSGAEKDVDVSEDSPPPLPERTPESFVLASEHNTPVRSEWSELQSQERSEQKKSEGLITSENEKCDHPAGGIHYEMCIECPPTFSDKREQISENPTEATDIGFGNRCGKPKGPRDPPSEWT
# Inconclusive results, whose numbers are uncertain, are shown with a selection of clear calls. For part of these data: A potency beside an inconclusive call is a rough fit, not a confirmed value. Active and inactive are the calls of the source. The calls were made as follows: active = hit-call score of the fitted dose curve at least 0.9, where 1 is the maximum; inconclusive = response in the unintended direction; inactive = score below 0.9.
# Experiments:
# [1] = read-out: ABC Transporter (ABCB11), ABCB11 (gene 8647); assay: CLD_ABCB11_48hr: CellzDirect (CLD) Gene Expression Assay for ABC Transporter (ABCB11) at 48 hours (AID 2283697)
# Outline: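 Primary human hepatocytes from two donor preparations dosed daily for two days at multiple concentrations; 0.2% DMSO vehicle. ABCB11 mRNA at 48 h by quantitative nuclease protection assay, chemiluminescence; fitted for induction versus DMSO.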
# [2] = read-out: Cytochrome P450 2C19 (Homo sapiens) (UniProt P33261); assay: CLD_CYP2C19_48hr: CellzDirect (CLD) Gene Expression Assay for xenobiotic metabolism (CYP2C19) at 48 hours (AID 2283700);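 as to outcome: fitted upward so actives raise CYP2C19 mRNA above the 0.2% DMSO vehicle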
# Outline: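 Primary human hepatocytes (two donor preparations) dosed daily for two days, harvested at 48 h; CYP2C19 mRNA induction measured by qNPA chemiluminescence. Gain-of-signal fitted relative to 0.2% DMSO vehicle as baseline.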
# [3] = read-out: Broad substrate specificity ATP-binding cassette transporter ABCG2 (Homo sapiens) (UniProt Q9UNQ0); assay: CLD_ABCG2_48hr: CellzDirect (CLD) Gene Expression Assay for ABC Transporter (ABCG2) at 48 hours (AID 2283704);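 as to AC50: potency for induction of ABCG2 mRNA above the DMSO baseline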
# Outline: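 Primary human hepatocytes from two donors, dosed daily for 2 days, 0.2% DMSO vehicle, several concentrations. ABCG2 mRNA at 48 h by qNPA chemiluminescence, gain fitted versus DMSO; cytotoxicity flagged by morphology.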
# [4] = read-out: Glyceraldehyde-3-phosphate dehydrogenase (Homo sapiens) (UniProt P04406); assay: CLD_GAPDH_48hr: CellzDirect (CLD) Gene Expression Assay for Baseline Control (Glyceraldehyde 3-phosphate dehydrogenase) at 48 hours (AID 2283706);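 as to outcome: active means higher GAPDH mRNA than DMSO vehicle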
# Outline: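 Primary human hepatocytes dosed daily for two days with fresh chemical at multiple concentrations, 0.2% DMSO vehicle; GAPDH mRNA measured at 48 h by quantitative nuclease protection assay with chemiluminescence, fitted upward relative to DMSO as background control.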
# [5] = read-out: organic anion transporter (SLCO1B1), SLCO1B1 (gene 10599); assay: CLD_SLCO1B1_48hr: CellzDirect (CLD) Gene Expression Assay for organic anion transporter (SLCO1B1) at 48 hours (AID 2283707)
# Outline: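 Primary human hepatocytes from two donor preparations dosed daily for two days with multiple concentrations, 0.2% DMSO vehicle. SLCO1B1 mRNA at 48 h by quantitative nuclease protection assay, chemiluminescence; gain-of-signal fitted versus DMSO.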
# [6] = read-out: HMG-CoA synthase (HMGCS2), HMGCS2 (gene 3158); assay: CLD_HMGCS2_48hr: CellzDirect (CLD) Gene Expression Assay for HMG-CoA synthase (HMGCS2) at 48 hours (AID 2283711)
# Outline: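 Primary human hepatocytes from two donors dosed daily for two days, 0.2% DMSO vehicle. HMGCS2 mRNA measured 48 h after dosing by quantitative nuclease protection assay with chemiluminescent read-out; induction fitted relative to DMSO, cytotoxicity flagged by microscopy.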
# [7] = Tanguay_ZF_120hpf_NC_legacy: (Legacy) Oregon State University Tanguay Lab 120 Hour Post-fertilization zebrafish Assay for Notochord and Tail Malformation (AID 2283656)
# Outline: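 Dechorionated 5D zebrafish, 1/well from 6 hpf; static exposure to 120 hpf, 28C, sealed, dark; final DMSO 0.64% v/v. NC scored binary (present/absent); dead embryos not scored. Fit vs DMSO baseline, gain direction.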
# [8] = STM_H9_NormalizedViability: Cytotoxicity Assessment at 120 hours in the Stemina devTOX quickPredict H9 human embryonic stem cell (hESC)-based Assay (AID 2283784)
# Outline: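 Chemicals are tested blinded on H9 human embryonic stem cells in the pluripotent state, with medium exchanged daily. After background correction, fluorescence from CellTiter-Fluor is scaled against 0.1% DMSO wells, and decreases are scored.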
# [9] = CCTE_Shafer_MEA_acute_AB: CCTE's Alamar Blue Assay for Cytotoxicity in the Neural Acute Assay, Shafer Lab (AID 2284069);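 also: active compounds lower the viability signal compared with DMSO wells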
# Outline: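 Cytotoxicity endpoint for acute MEA exposures of primary rat cortical neurons on day 13 or 15. Resazurin reduction is read fluorescently at 544/590 nm, with DMSO as the negative-control baseline.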
# [10] = target: rat CYP1A2, Cyp1a2 (gene 24297) (UniProt P04799); assay: NVS_ADME_rCYP1A2: NovaScreen (NVS) CYP450-related Enzyme Activity (ADME) Assay for rat CYP1A2 (AID 2283115)
# Outline: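 Cell-free recombinant rat enzyme with fluorogenic substrate, read by fluorescence intensity 1 hour after dosing. Loss of signal versus acetonitrile negative control; primary screen at 10 uM in duplicate, actives followed in concentration series.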
# [11] = target: human AKT serine/threonine Kinase 2 (AKT2), AKT2 (gene 208) (UniProt P31751); assay: NVS_ENZ_hAKT2: NovaScreen (NVS) Enzymatic Assay for human AKT serine/threonine Kinase 2 (AKT2) (AID 2283141)
# Outline: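 Cell-free fluorescence/electrophoretic mobility shift readout of recombinant human AKT2 activity, 1 h after chemical dosing. Duplicate primary screen at 25 uM, then singleton concentration-response up to 50 uM; loss of signal versus DMSO baseline.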
# [12] = target: Tyrosine-protein phosphatase non-receptor type 13 (Homo sapiens) (UniProt Q12923); assay: NVS_ENZ_hPTPN13: NovaScreen (NVS) Enzymatic Assay for human Protein Tyrosine Phosphatase Non-receptor Type 13 (PTPN13) (AID 2283205)
# Outline: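 Cell-free assay of recombinant human PTPN13 with a fluorescent substrate, product separated by electrophoretic mobility shift and read 0.5 h after dosing. Primary screen at 25 uM in duplicate, then concentration-response up to 50 uM. Loss of signal fitted against DMSO.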
# [13] = target: human Protein Tyrosine Phosphatase Receptor Type M (PTPRM), PTPRM (gene 5797) (UniProt P28827); assay: NVS_ENZ_hPTPRM: NovaScreen (NVS) Enzymatic Assay for human Protein Tyrosine Phosphatase Receptor Type M (PTPRM) (AID 2283215)
# Outline: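 Cell-free recombinant PTPRM with fluorogenic substrate; product separated from substrate by electrophoretic mobility shift and read by fluorescence, 1.33 h after dosing. Primary screen single concentration (25 uM) in duplicate; actives retested in concentration series; loss of signal versus DMSO.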
# [14] = target: human Sirtuin 2 (SIRT2), SIRT2 (gene 22933) (UniProt Q8IXJ6); assay: NVS_ENZ_hSIRT2: NovaScreen (NVS) Enzymatic Assay for human Sirtuin 2 (SIRT2) (AID 2283217)
# Outline: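 Cell-free recombinant human SIRT2, fluorescent substrate with product separated by electrophoretic mobility shift, 1 hr. Screened in duplicate at 25 uM; hits rerun singly in concentration-response up to 50 uM, relative to DMSO.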
# [15] = target: Voltage-dependent N-type calcium channel subunit alpha-1B (Rattus norvegicus) (UniProt Q02294); assay: NVS_IC_rCaChN: NovaScreen (NVS) Ion Channel Assay for rat Calcium Channel, Type N (CaChN) (AID 2283317)
# [16] = target: Mitogen-activated protein kinase 3 (Homo sapiens) (UniProt P27361); assay: NVS_ENZ_hMAPK3: NovaScreen (NVS) Enzymatic Assay for human Mitogen-Activated Protein Kinase 3 (MAPK 3) (AID 2283177)
# Outline: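 Cell-free enzymatic assay with recombinant protein and specific substrate; fluorescence and electrophoretic mobility shift read-out 1 h after dosing. Primary screen duplicate at 25 uM; actives then run in concentration-response up to 50 uM, loss of signal versus DMSO.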
# [17] = target: Tyrosine-protein phosphatase non-receptor type 12 (Homo sapiens) (UniProt Q05209); assay: NVS_ENZ_hPTPN12: NovaScreen (NVS) Enzymatic Assay for human Protein Tyrosine Phosphatase Non-receptor Type 12 (PTPN12) (AID 2283204)
# Outline: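 Single-concentration duplicates (25 uM) preceded singleton concentration-response up to 50 uM for chemicals passing threshold. Cell-free recombinant PTPN12 activity was read 1.33 h after dosing via fluorescence after mobility-shift separation; loss of signal versus DMSO.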
# [18] = Tanguay_ZF_120hpf_SOMI_legacy: (Legacy) Oregon State University Tanguay Lab 120 Hour Post-fertilization zebrafish Assay for Somite Malformation (AID 2283647)
# Outline: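 Dechorionated Tropical 5D wild-type zebrafish embryos, one per well from 6 hpf, statically exposed at 28C to 120 hpf in 0.64% DMSO; somite malformation scored present/absent by brightfield; trimethyltin 5 uM positive control; dead embryos not scored.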
# [19] = CCTE_Mundy_HCI_hNP1_Pro_ResponderAvgInten: CCTE's Proliferation Assay in human neuroprogenitor cells, Mundy Lab (AID 2284224);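 also: human neural progenitor cells hNP1 derived from WA09 embryonic stem cells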
# Outline: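 Proliferation was scored as BrdU labelling intensity in human neural progenitors derived from WA09 embryonic cells, measured 26.25 hours after chemical dosing. Activity was fitted relative to DMSO.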
# [20] = target: CDK2 (gene 1017) (UniProt P24941); assay: NVS_ENZ_hCDK2: NovaScreen (NVS) Enzymatic Assay for human Cyclin-Cependent Kinase 2 (CDK2) (AID 2283144)
# Outline: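 Cell-free recombinant human CDK2 with fluorescent substrate, product separated by electrophoretic mobility shift; 1 hr read. Primary screen at 25 uM in duplicate, actives retested in concentration-response up to 50 uM; loss of signal versus DMSO.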
compound,measurement,setting,value
CCC(O)=C1C(=O)CC(C(=O)O)CC1=O (stereo not drawn),AC50,[1],inconclusive: 1.89 µM
same,outcome,[2],inactive
same,outcome,[3],inactive
same,outcome,[4],inactive
same,outcome,[5],inactive
same,outcome,[6],inactive
CCCN(CCC)c1c([N+](=O)[O-])cc(C(F)(F)F)c(N)c1[N+](=O)[O-],AC50,[7],inconclusive: 68.3 µM
same,AC50,[1],inconclusive: 6.39 µM
same,AC50,[2],inconclusive: 20 µM
same,AC50,[3],inconclusive: 20 µM
same,AC50,[4],inconclusive: 9.83 µM
same,AC50,[5],inconclusive: 20 µM
same,AC50,[6],inconclusive: 20 µM
same,outcome,[8],inactive
same,AC50,[9],inconclusive: 4.07 µM
CCOC(=O)C1=NOC(c2ccccc2)(c2ccccc2)C1,outcome,[10],inactive
CCCCCCCC(=O)O,AC50,[11],inconclusive: 0.294 µM
same,AC50,[12],inconclusive: 0.125 µM
same,AC50,[13],inconclusive: 25 µM
same,outcome,[14],inactive
same,AC50,[15],inconclusive: 25 µM
CCCC(CCC)C(=O)O,outcome,[16],inactive
same,AC50,[17],inconclusive: 25 µM
same,AC50,[18],inconclusive: 153 µM
same,AC50,[19],inconclusive: 0.00059 µM
CCc1ccc(C(c2ccc(CC)cc2)C(Cl)Cl)cc1,AC50,[10],inconclusive: 5 µM
Cc1ncc([C@@H](CCCCCCc2ccc3c(n2)NCCC3)CC(=O)O)cn1,AC50,[11],inconclusive: 25 µM
same,AC50,[20],inconclusive: 25 µM
same,AC50,[16],inconclusive: 0.566 µM
same,outcome,[17],inactive
same,AC50,[12],inconclusive: 0.278 µM
same,outcome,[14],inactive
same,outcome,[9],inactive

# A run of entries from the list above, as a working copy:
compound,measurement,setting,value
CCCCCCCC(=O)O,AC50,[13],inconclusive: 25 µM
same,outcome,[14],inactive
same,AC50,[15],inconclusive: 25 µM
